Literature values in patent US6829540B1, “Drug discovery using multiple membrane mimetic affinities” (priority 1997, dated 2004).
Read-outs that look alike come from different tables or passages of the source.

Details: cited from earlier work

CN1[C@@H]2C[C@@H](OC(=O)[C@H](CO)c3ccccc3)C[C@H]1[C@@H]1O[C@@H]12 [scopolamine]
Oral Absorption (%) (Table 6, low oral absorption training set): 27% | Oral Absorption (%) (Table 9, compounds with low oral absorption): 27%
